# ± gives the standard deviation of the averaged measurements. This is one part of the list.
# Target: T1, UniProt Q9NSI8 and related entries
# T1 sequence (whole entry): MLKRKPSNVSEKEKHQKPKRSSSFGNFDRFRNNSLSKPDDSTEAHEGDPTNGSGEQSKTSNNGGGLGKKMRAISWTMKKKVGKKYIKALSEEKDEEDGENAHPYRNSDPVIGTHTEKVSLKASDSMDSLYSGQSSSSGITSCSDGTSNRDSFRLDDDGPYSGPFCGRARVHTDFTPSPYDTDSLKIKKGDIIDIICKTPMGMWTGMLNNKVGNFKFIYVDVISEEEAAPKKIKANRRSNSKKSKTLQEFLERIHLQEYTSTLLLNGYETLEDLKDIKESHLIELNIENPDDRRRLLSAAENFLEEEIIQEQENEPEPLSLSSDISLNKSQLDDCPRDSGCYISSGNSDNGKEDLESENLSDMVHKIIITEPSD
# Experiment: NP40-soluble protein abundance relative to vehicle (solubility fold change) (ratio); higher = more soluble protein in presence of GTP
# Experimental: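 Solubility proteome profiling in Jurkat crude lysate. Lysate was treated with Mg-GTP (0.1-10 mM) for 10 min at room temperature and 3 min at 37 °C, then solubilised with 0.8% NP40 and benzonase, followed by ultracentrifugation. Proteins were quantified by TMT10 LC-MS/MS; the value is the NP40-soluble abundance relative to the NP40-processed vehicle, from 3 independent experiments.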
structure (smiles),measurement,setting,value
Nc1nc2c(ncn2[C@@H]2O[C@H](COP(=O)(O)OP(=O)(O)OP(=O)(O)O)[C@@H](O)[C@H]2O)c(=O)[nH]1 [guanosine triphosphate],NP40-soluble protein abundance,concentration: 0.1mM,0.968 ± 0.085
same,NP40-soluble protein abundance,concentration: 0.5mM,0.961 ± 0.12
same,NP40-soluble protein abundance,concentration: 1mM,0.977 ± 0.13
same,NP40-soluble protein abundance,concentration: 2mM,0.924 ± 0.14
same,NP40-soluble protein abundance,concentration: 4mM,0.932 ± 0.13
same,NP40-soluble protein abundance,concentration: 6mM,0.93 ± 0.15
same,NP40-soluble protein abundance,concentration: 8mM,0.891 ± 0.1
same,NP40-soluble protein abundance,concentration: 10mM,0.915 ± 0.16

# From the supplement of paper PMC6411743
